From the supplement of paper PMC3545927
Only a part is listed here, and it is no random draw.

Amino acid sequences for entries named in this document (tags omitted).
furin, P09958, UniProt P09958, whole entry: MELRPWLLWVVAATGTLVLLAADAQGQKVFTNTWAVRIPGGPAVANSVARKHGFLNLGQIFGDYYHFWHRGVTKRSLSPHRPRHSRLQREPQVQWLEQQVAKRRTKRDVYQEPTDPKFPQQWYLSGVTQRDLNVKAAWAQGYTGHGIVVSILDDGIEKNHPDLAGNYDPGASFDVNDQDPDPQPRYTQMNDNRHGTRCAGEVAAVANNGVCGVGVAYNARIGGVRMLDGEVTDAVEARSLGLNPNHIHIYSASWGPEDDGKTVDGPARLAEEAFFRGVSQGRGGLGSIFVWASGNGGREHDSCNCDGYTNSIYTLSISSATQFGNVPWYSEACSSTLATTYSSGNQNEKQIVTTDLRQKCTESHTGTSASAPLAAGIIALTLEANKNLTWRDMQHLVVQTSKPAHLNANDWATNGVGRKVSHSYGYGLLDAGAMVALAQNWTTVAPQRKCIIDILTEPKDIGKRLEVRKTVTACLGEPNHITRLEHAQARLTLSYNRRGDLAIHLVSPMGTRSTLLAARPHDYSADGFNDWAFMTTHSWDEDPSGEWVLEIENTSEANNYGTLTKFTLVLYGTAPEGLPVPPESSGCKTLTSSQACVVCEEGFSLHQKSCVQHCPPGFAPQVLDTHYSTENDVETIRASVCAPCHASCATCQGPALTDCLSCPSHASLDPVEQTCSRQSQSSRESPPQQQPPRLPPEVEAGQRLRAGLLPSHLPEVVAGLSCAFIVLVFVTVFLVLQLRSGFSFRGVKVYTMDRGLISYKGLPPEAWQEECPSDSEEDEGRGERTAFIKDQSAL

Molecular target: furin, P09958
Test: furin cleavage Z-score vs untreated control; higher = more cleavage, active = 3.5 or more, inactive = 1 or less, 8 variable residues between constant flanks
Outline: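 Magnetic beads held 8-mer peptides by the N-terminus, each fused to a cDNA oligonucleotide, and purified furin was added for 7.5, 15 or 30 min. Released DNA was sequenced after PCR adapter tagging. The cleavage Z-score is the log count relative to furin-free reactions, lowess-adjusted and divided by median absolute deviation.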
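Also: purified furin at 1:10 enzyme:substrate in 50 mM HEPES pH 7.5.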

Sequence | furin cleavage Z-score (7.5 min) | furin cleavage Z-score (15 min) | furin cleavage Z-score (30 min)
CARQQREARGAGNASASA [FS-2760] | 2.26 | 2.04 | 2.68
CALAALAAYCAGNASASA [HC994] | inactive: 0.554 | 1.14 | inactive: 0.545
CARRKRQVYGAGNASASA [FS-3204] | active: 6.12 | active: 7.43 | active: 7.08
CAKTRRSVDGAGNASASA [FS-2248] | active: 6.46 | active: 7.09 | active: 5.86
CADAELIEANAGNASASA [HC1272] | 1.56 | 1.04 | inactive: 0.698
CARSKKAVDWAGNASASA [FS-2378] | 2.03 | 1.69 | 2.98
CALRRRCQRDAGNASASA [FS-459] | active: 9.61 | active: 9.12 | active: 7.39
CADQKRSLESAGNASASA [FS-2246] | inactive: -0.764 | inactive: -1.16 | inactive: -0.0942
CAFSSRWGRGAGNASASA [FS-1523] | inactive: -2.35 | inactive: 0.914 | inactive: -0.211
CARSKRQEGVAGNASASA [FS-1972] | 1.79 | 2.77 | 2.39
CARQIRTVIQAGNASASA [FS-2748] | 1.04 | 1.82 | 1.22

Some of the entries above in another layout:
Sequence,furin cleavage Z-score (7.5 min),furin cleavage Z-score (15 min),furin cleavage Z-score (30 min)
CARQQREARGAGNASASA [FS-2760],2.26,2.04,2.68
CALAALAAYCAGNASASA [HC994],inactive: 0.554,1.14,inactive: 0.545
